In PubChem BioAssay AID250 (DTP/NCI, 2004):
The list is a part of this screen's results and no random one: it gathers some chemical classes. Not every dose and run of a compound is shown. T/C: endpoint of the treated group in % of that of the vehicle group. Where survival is the endpoint, the PubChem record calls one and a half times the control and up active, and a quarter to a half above the control has no call in these data; cut-offs in other NCI protocols can differ. Schedules are NCI's codes, read here as Q, the interval in days (D) or hours (H), X, the number of doses. Some T/C values are marked as having no survivor count here; that says nothing about deaths at the dose. Brackets with × say how often a value occurs here. Some doses were run more than once; the results are listed from low to high.

How the values were obtained:
[1] = system: BDF1 mice, L1210 leukemia sc, survival T/C; assay: NCI In Vivo Anticancer Drug Screen. Data for tumor model L1210 Leukemia (subcutaneous) in B6D2F1 (BDF1) mice; conditions: T/C endpoint: median survival time, schedule: Q01DX009 (sc), vehicle: saline, higher T/C = longer survival
Protocol: (§1) The antitumor activity of compounds was measured in mice bearing transplantable tumors. Survival or tumor size were measured and the results are expressed as the measurement made in the treated group (T) divided by the measurement made in the vehicle treated control group (C). The tumor model used in this assay is L1210 Leukemia (subcutaneous) in B6D2F1 (BDF1) mice

[2] = system: BDF1 mice, L1210 leukemia sc; assay: as above; conditions: T/C endpoint: median survival time, schedule: Q01DX009 (sc), vehicle: saline, higher T/C = longer survival
Protocol: as §1

[3] = dose: 3.0 mg/kg/injection, evaluated on day 7
[4] = dose: 5.0 mg/kg/injection, evaluated on day 7

For CC(=O)OCC12CCC(C)=CC1OC1C(O)C(OC(C)=O)C2(C)C12CO2 (stereo not drawn), the T/C ([1]; dose: 0.25 mg/kg/injection, evaluated on day 7) was 97 % of control [survivor count not shown], the T/C ([1]; dose: 0.25 mg/kg/injection, evaluated on day 36) was 100 % of control [survivor count not shown] and the T/C ([1]; dose: 0.5 mg/kg/injection, evaluated on day 7) was 104 % of control [survivor count not shown]. The T/C ([1]; dose: 0.5 mg/kg/injection, evaluated on day 36) was 105 % of control [survivor count not shown], the T/C ([1]; dose: 0.65 mg/kg/injection, evaluated on day 7) was 108 % of control [survivor count not shown] (2×) and the T/C ([1]; dose: 0.65 mg/kg/injection, evaluated on day 32) was 111 % of control [survivor count not shown]. For the same molecule, the T/C ([1]; dose: 0.65 mg/kg/injection, evaluated on day 36) was 111 % of control [survivor count not shown], the T/C ([1]; dose: 1.0 mg/kg/injection, evaluated on day 7) was 110 % of control [survivor count not shown] and the T/C ([1]; dose: 1.0 mg/kg/injection, evaluated on day 36) was 111 % of control [survivor count not shown]. The T/C ([1]; dose: 1.08 mg/kg/injection, evaluated on day 7) was 113 [survivor count not shown] and 123 % of control [survivor count not shown], the T/C ([1]; dose: 1.08 mg/kg/injection, evaluated on day 32) was 111 % of control [survivor count not shown] and the T/C ([1]; dose: 1.08 mg/kg/injection, evaluated on day 36) was 122 % of control [survivor count not shown]. For the same molecule, the T/C ([1]; dose: 1.8 mg/kg/injection, evaluated on day 7) was 118 [survivor count not shown] and 123 % of control [survivor count not shown], the T/C ([1]; dose: 1.8 mg/kg/injection, evaluated on day 32) was 116 % of control [survivor count not shown] and the T/C ([1]; dose: 1.8 mg/kg/injection, evaluated on day 36) was 122 % of control [survivor count not shown]. For the same molecule, the T/C [1, 3] was 123 % of control [survivor count not shown], the T/C ([1]; dose: 3.0 mg/kg/injection, evaluated on day 32) was 122 % of control [survivor count not shown] and the T/C ([1]; dose: 4.0 mg/kg/injection, evaluated on day 7) was 118 % of control [survivor count not shown]. The T/C ([1]; dose: 4.0 mg/kg/injection, evaluated on day 36) was 122 % of control [survivor count not shown], the T/C [1, 4] was 118 % of control [survivor count not shown] and the T/C ([1]; dose: 5.0 mg/kg/injection, evaluated on day 36) was 122 % of control [survivor count not shown]. For the same molecule, the T/C ([1]; dose: 8.0 mg/kg/injection, evaluated on day 7) was 122 % of control [survivor count not shown], the T/C ([1]; dose: 8.0 mg/kg/injection, evaluated on day 36) was 122 % of control [survivor count not shown] and the T/C ([1]; dose: 8.4 mg/kg/injection, evaluated on day 7) was 121 [survivor count not shown] and 123 % of control [survivor count not shown]. The T/C ([1]; dose: 8.4 mg/kg/injection, evaluated on day 32) was 122 % of control [survivor count not shown], the T/C ([1]; dose: 8.4 mg/kg/injection, evaluated on day 36) was 122 % of control [survivor count not shown] and the T/C ([1]; dose: 14.0 mg/kg/injection) was 91 % of control [survivor count not shown]. The T/C ([2]; dose: 2.0 mg/kg/injection, evaluated on day 7) was 125 % of control [survivor count not shown], the T/C ([2]; dose: 2.0 mg/kg/injection, evaluated on day 36) was 127 % of control [survivor count not shown] and the T/C [2, 3] was 130 % of control [survivor count not shown]. The T/C ([2]; dose: 3.0 mg/kg/injection, evaluated on day 36) was 133 % of control [survivor count not shown], the T/C [2, 4] was 127 % of control [survivor count not shown] and the T/C ([2]; dose: 5.0 mg/kg/injection, evaluated on day 32) was 127 % of control [survivor count not shown].
